Results taken from article doi:10.1101/2021.11.02.466889.
Like-named read-outs stand apart in the source and are kept apart here. No constants are given. Whether binding was seen depends on the method and setting. Some results given as binding are weak or reduced against the parent protein; the word gives no strength.

Chains of the proteins cited; added tags and fusions are not shown.
UniProt A0A0D1DWQ2: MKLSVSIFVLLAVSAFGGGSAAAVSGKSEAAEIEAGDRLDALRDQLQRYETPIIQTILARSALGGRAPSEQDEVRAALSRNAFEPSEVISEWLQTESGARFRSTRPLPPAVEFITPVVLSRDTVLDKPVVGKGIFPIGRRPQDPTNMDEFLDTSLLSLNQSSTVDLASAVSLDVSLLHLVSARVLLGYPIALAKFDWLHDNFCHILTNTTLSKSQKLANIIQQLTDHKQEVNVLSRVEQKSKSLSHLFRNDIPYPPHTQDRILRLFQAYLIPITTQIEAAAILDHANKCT

Assays:
Assay in all cases: two-hybrid
[1] = target: chorismate mutase (Cmu1), yeast two-hybrid fusions (Ustilago maydis)
[2] = target: chorismate mutase (Cmu1), yeast two-hybrid fusions (Ustilago maydis); remark: listed apart in the source
[3] = target: chorismate mutase (Cmu1), yeast two-hybrid fusions (Ustilago maydis); remark: listed apart in the source

Measured: binding

chorismate mutase (Cmu1), yeast two-hybrid fusions (from UniProt A0A0D1DWQ2 1-290) (enzyme)
binds: all assays above
